Our source for the binding values is publication PMC8831594.

These are yes or no findings as the source states them, for the method shown. In cells and extracts the contact can be indirect. For some of these results: Binding calls can cover weak binding; strength is not graded here. For some of these results: Where a sequence is shown, tags or fusion partners need not be part of it.

For assay [1], the target named is T1, His-GST-Lap2α-CTD (C-terminal domain of Lap2α, residues 459-693) (mouse) (UniProt Q61033).
T1 sequence: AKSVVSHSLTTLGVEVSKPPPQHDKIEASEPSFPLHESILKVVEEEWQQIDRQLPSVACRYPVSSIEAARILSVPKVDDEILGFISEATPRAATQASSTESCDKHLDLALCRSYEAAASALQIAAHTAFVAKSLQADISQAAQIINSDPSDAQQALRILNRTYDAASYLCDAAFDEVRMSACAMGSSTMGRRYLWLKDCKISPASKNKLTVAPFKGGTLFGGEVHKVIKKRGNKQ
Nature of the assay: pull-down; His-GST or His-GST-Lap2α-CTD from E. coli lysates immobilised on glutathione agarose and washed (500 mM NaCl); 1.5 µM purified His-MRTF-A, 25 mM Tris-HCl pH 7.5, 150 mM NaCl, 1 mM DTT, overnight at 4 °C; anti-His Western blot; both purified. A general note: In western blotting, separated proteins are transferred to a membrane and probed.

Assay [2] deals with MRTF-A-ΔN-2HA (amino acids 170-1021) (mouse). In words: co-IP; NIH 3T3 transfected with HA/FLAG-tagged constructs (3 µg each plasmid), 24 h; IP buffer 0.5% Triton X-100, 50 mM Tris-HCl pH 7.5, 150 mM NaCl; anti-HA or anti-FLAG M2 affinity gel, 3 h at 4 °C; Western blot.
For assay [3], the target named is MRTF-A-ΔLZ-2HA (mouse). The description is as above.
Assay [4] has as its target MRTF-A with deletion of the B1 domain (mouse). The assay is described as above.
Assay [5] has as its target RPEL-2HA (N-terminal RPEL domain of MRTF-A, amino acids 1-204) (mouse). The description is as above.
In assay [6] the target is MRTF-A C471 (MRTF-A deletion construct without C-terminus) (mouse). The assay is described as above.
The target in assay [7] is MRTF-A-ΔQ-2HA (mouse). The assay is described as above.

As to His-MRTF-A (recombinant mouse MRTF-A), the binding result in assay [1] is given as “binds”.

B1: Lap2α (partner of the MRTF-A deletion and mutant constructs in the co-IPs of Fig. 6e-i) (protein, UniProt Q61033-1 1-693)
chain: MPEFLEDPSVLTKDKLKSELVANNVTLPAGEQRKDVYVQLYLQHLTARNRPPLAAGANSKGPPDFSSDEEREPTPVLGSGASVGRGRGAVGRKATKKTDKPRLEDKDDLDVTELSNEELLDQLVRYGVNPGPIVGTTRKLYEKKLLKLREQGTESRSSTPLPTVSSSAENTRQNGSNDSDRYSDNDEGKKKEHKKVKSARDCVPFSELASTPSGAFFQGISFPEISTRPPLGRTELQAAKKVQTTKRDPPRETCTDTALPGKGQTHKLAPGRSLFIPSESSYDRCVEKSSSPSSQREFAARLVSAAASPSLIRETTTTYSKDIVENICRGGKSRAQPLRAEEPGVSDQSVFSSEREVLQESERSQVISPPLAQAIRDYVNSLLVQGGVGSLPGTSDSVPTLDVENICKRLSQSSYQDSESLSPPRKVPRLSEKPARGGDSGSCVAFQNTPGSEHRSSFAKSVVSHSLTTLGVEVSKPPPQHDKIEASEPSFPLHESILKVVEEEWQQIDRQLPSVACRYPVSSIEAARILSVPKVDDEILGFISEATPRAATQASSTESCDKHLDLALCRSYEAAASALQIAAHTAFVAKSLQADISQAAQIINSDPSDAQQALRILNRTYDAASYLCDAAFDEVRMSACAMGSSTMGRRYLWLKDCKISPASKNKLTVAPFKGGTLFGGEVHKVIKKRGNKQ
As for B1, the binding result in assay [2] is on record as “binds”; in assay [3] it was “binds”; in assay [4] it was “binds”; in assay [5] it was “no binding”; in assay [6], “binds”; in assay [7] it was “binds”.
